Entries after “also recorded” stand apart in the source; their conditions may differ. At least one compound was matched to its structure with a doubt left.
Key:
rodent = test: d-amphetamine-induced hyperlocomotion (rodent model of mania); type: in vivo; conditions: pretreatment with lithium at 14.1 mg/kg alone
c-fos = test: Pharmacomapping: whole-brain drug-evoked c-fos activation

[Li] [lithium]
effect on amphetamine-induced hyperlocomotion (rodent): not moderated; also recorded: no behavioral effect
lithium evoked brain activation pattern (c-fos; 120 and 150 mg/kg, BSTa, CEA, LC): modest to moderate activation of a few brain areas
lithium evoked brain activation pattern (c-fos; 200 and 300 mg/kg): considerably broader activation
pharmacomap pattern compared with gaboxadol (c-fos; lithium 300 mg/kg): closely matched that of gaboxadol at 20 mg/kg
brain activation of each compound alone (c-fos; lithium at 150 mg/kg alone, gaboxadol at 6 mg/kg alone): moderate brain activation on their own
brain activation of the compound alone (c-fos; lithium at 200 mg/kg alone): moderate brain activation on their own
